Experimental data reported in patent US20050142640A1.
No constants are given. Whether binding was seen depends on the method and setting. Binding can be weak; no strength is given.

Legend:
HLA-A*0201 (human) [1] = test: competition assay on acid-stripped JY cells, flow cytometry
HLA-A*0201 (human) [2] = test: competition with 150 nM fluorescent reference peptide on acid-stripped JY cells, flow cytometry; positive = 50% inhibition at 20 µg/ml or less; FIG. 1

B1: MUC1^264-272 (…), polypeptide of SEQ ID NO: 4 (peptide)
peptide: FLSFHISNL
- binding (HLA-A*0201 (human) [1]): binds
- binding (HLA-A*0201 (human) [2]): binds

B2: MUC1^460-468 (…), polypeptide of SEQ ID NO: 6 (peptide)
peptide: SLSYTNPAV
- binding (HLA-A*0201 (human) [1]): binds
- binding (HLA-A*0201 (human) [2]): binds

B3: MUC1^13-21 (…), polypeptide of SEQ ID NO: 65 (peptide)
peptide: LLLTVLTVV
- binding (HLA-A*0201 (human) [1]): binds

B4: MUC1^79-87 (…), polypeptide of SEQ ID NO: 5 (peptide)
peptide: TLAPATEPA
- binding (HLA-A*0201 (human) [1]): binds
- binding (HLA-A*0201 (human) [2]): binds

B5: MUC1^107-115 (…), polypeptide of SEQ ID NO: 66 (peptide)
peptide: ALGSTTPPA
- binding (HLA-A*0201 (human) [1]): binds
